These are literature values, as cited in patent US20060211763A1, “Treatment with Statin and Omega-3 Fatty Acids and a Combination Product Thereof” (priority 2005, published 2006).

As to `CC(C)c1c(C(=O)Nc2ccccc2)c(-c2ccccc2)c(-c2ccc(F)cc2)n1CC[C@@H](O)C[C@@H](O)CC(=O)O` [atorvastatin], the “Degradation in acidic environment” value is given as “converted to their lactone forms”.
